Data: publication PMC11532494 (Nature Communications, 2024)
Read-outs that look alike come from different tables or passages of the source.

Amino acid sequences for entries named in this document (tags omitted). Residues count along the entry.
UniProt A0A2N0XRJ0, 1-372: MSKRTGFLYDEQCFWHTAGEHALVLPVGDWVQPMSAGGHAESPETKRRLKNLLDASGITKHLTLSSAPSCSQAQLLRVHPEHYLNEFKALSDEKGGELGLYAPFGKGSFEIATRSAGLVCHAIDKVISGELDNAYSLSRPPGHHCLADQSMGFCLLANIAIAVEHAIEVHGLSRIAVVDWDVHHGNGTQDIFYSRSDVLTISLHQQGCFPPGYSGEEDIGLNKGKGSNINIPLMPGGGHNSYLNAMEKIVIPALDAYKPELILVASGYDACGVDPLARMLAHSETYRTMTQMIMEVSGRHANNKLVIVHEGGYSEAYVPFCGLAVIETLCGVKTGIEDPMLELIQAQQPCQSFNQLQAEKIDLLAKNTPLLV

Legend:
(UniProt A0A2N0XRJ0) = assay: biochemical; parameters: species or system Vibrio sp.; settings: for IC50: 60 µM QPKKac, 1.5 nM enzyme, 60 min, 37 °C
HsHDAC11 (5f) = settings: cited from earlier work

Which results are given for `O=C(CCCCCCC(=O)Nc1ccccc1)NO` [SAHA, suberoylanilide hydroxamic acid]?
Ki ((UniProt A0A2N0XRJ0)): 8.9 nM; IC50 ((UniProt A0A2N0XRJ0); read-out: IC50): 2.03e-08 M; IC50 ((UniProt A0A2N0XRJ0); decadic log of IC50, read-out: Log[IC50(M)] (converted)): 2.04e-08 M; inhibition of HsHDAC11 (5f), in words (HsHDAC11 (5f)): only weakly inhibited
